PubChem BioAssay AID1347423 (Functional Genomics Laboratory (NCATS/FGL), 2020)
The whole screen tested about 52,000 sequences, of which about 210 (0.4%) were called active.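 The calls were made as follows: active = gene whose silencing raises cell survival under the drug, median off-target-corrected z-score across its silencing RNAs 2 or more; inactive = the rest.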 This is one part of the list.

Test: Resistance to Poly (ADP-Ribose) Polymerase inhibitor: Gene Identification via Genome-wide siRNA Screen
Settings: mouse BRCA2 R2336H ES cells, olaparib, CellTiter-Glo viability; active compounds read high
How it was run: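 Genome-wide siRNA screen (3 siRNAs/gene, 20 nM) in mouse ES cells carrying hypomorphic BRCA2 R2336H; olaparib 500 nM added 48 h post-transfection, CellTiter-Glo viability 72 h later. Normalized to plate-median negative control; MAD z-scores, gene median, seed-adjusted.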

Sequence | z-score
GGAGGUCACCCUCAAGAUGTT against Gjb4 | inactive: -0.479
GGAUUCUCUGUAGCUCAAATT against Magea5 | inactive: -2.59
GGACACUGUACUCAAACCUTT against C230078M14 | inactive: 0.624
GCCUUUUUAAAGCUCAAGUTT against LOC434179 | inactive: 0.972
GCGAACAACCACGUUUUUCTT against Ddx18 | inactive: 0.583
GGGAUUCUUUAAGAGCUCUTT against Prdx2 | inactive: 0.782
GGGAAGCAUGCAGAACAGCTT against Parg | inactive: 0.655
GGAAUACUAUGUUGAUUACTT against Lrrtm1 | inactive: 0.0161
CGAAUUUGGCUUCAGAUGATT against Ppp2r1b | inactive: 0.593
GGACUCAUGAUUACAGCACTT against Tas2r134 | inactive: 1.06
CCUAAUUAUGUCAAGAUGATT against Foxm1 | inactive: -0.428
GGCAAUAACCACAUGAAAGTT against Sgtb | inactive: 1.3
CGGCUUAUGAGUUAAAGACTT against Rad51l1 | inactive: -1.94
GGCGAUGUGAUGGAUGUAGTT against Hira | inactive: -1.52
CCAAAGGUAUAUAGAGGUUTT against Plce1 | inactive: -0.791
CCGAGUAUAUCUAUAAUAGTT against Ear14 | inactive: -1.62
GGCUCUCGUUAAAUACUGGTT against Pik3r4 | inactive: 1.04
GGUUCAGACCAUCUUGGAATT against Bag3 | inactive: -2.72
GCCUUCUGGCAAGAAUCUUTT against 2310040M23Rik | inactive: 0.569
GAUGAUCUUUCUUUCCAUCTT against D630024D12Rik | inactive: 0.0515
CGAUCGAAAUCAAGUCGAUTT against 9-Sep | inactive: -0.907
GGUCAUUGGUCGCUGGUCATT against Gzmm | inactive: 1.22

Sequence | z-score
GCAAGUGUCUCAAGUGCAGTT against Lhx3 | inactive: -0.64
GGACCUUAUUUGAAGCCUATT against D330012D11Rik | inactive: -2.09
GCAAAGUGGAUAUAGUGUCTT against Gprin1 | inactive: 0.00305
GGAAGUGUUAUUAACCAAGTT against Rfxdc1 | inactive: 0.0539
CGGAAUGAACAUCAUGCUCTT against 1700027A23Rik | inactive: 0.388
GGAGAAAUAAAUGACUUGCTT against Zswim2 | inactive: 0.115
GCAACUAGUUAGUGCCUCCTT against Klf15 | inactive: 1
GCGCAUCAAUCUUGGAGGATT against Actr5 | inactive: 0.719
GGAAUUCCAAGUCAUUAUUTT against B230340J04Rik | inactive: 0.179
GGGUCAGGACUCCUUUAUGTT against 2700083B06Rik | inactive: 0.158
GGUAGAGGAUGACUUCCUGTT against Ptpn5 | inactive: 0.121
GGGAUUCGACAGCAGAUCATT against H2-M10.4 | inactive: -3.67
GGAUUAAUUAAUACUUGGCTT against 3010033P07Rik | inactive: 0.03
GGCUAAGUACGUCAAGAGCTT against 5430432M24Rik | inactive: 1.63
CGUAUCGCUGUUCAUGUUUTT against 5330438D12Rik | inactive: 0.244
GGCGAUGAUUAUAAGAUUATT against Copa | inactive: -1.3
GGAGAUCUACAUGACCUUCTT against Rgs10 | inactive: -0.745
CGUACUCUGCCAAUGCUUCTT against Sec24b | inactive: 1.18
GGAGAUGCUGUUCUUUCCGTT against Casc3 | inactive: 1.71
GGAUGAGAAUGGUUAUACUTT against Asz1 | inactive: -0.751
CCUAUGCUAUGUAGUUUAATT against Adam21 | active: 0.555
GGACAUUGACCUAAGCCCUTT against Pcnx | inactive: -0.353

Sequence | z-score
CCUUCAGAGUUUCAGACAATT against 4931417G12Rik | inactive: 0.272
GCAAGACAAUCGAAGAAUATT against Pgm2 | inactive: -1.33
GGUUGUUACCUUACUGUACTT against Olfr532 | inactive: 2.61
GGAACAUUCUAGAAUCUGUTT against Rps6kb2 | inactive: -0.608
CGAUGACAUCGUGUUUGAGTT against Arrb2 | inactive: 1.19
GGUCAUCCUUCUAUUCUCUTT against Olfr648 | inactive: -0.285
GGUGUUCCACCAGGAUCACTT against Clca1 | inactive: 0.46
GGUUCGGUAUUCUGAUACATT against 1700028K03Rik | inactive: -0.745
GGAAUGAGUCCUCAAUUAUTT against Car1 | inactive: 2.45
GGAGUCAGUAAAGAUCCUCTT against Tgif2 | inactive: 0.837
GGAAAACAAGACAGUUUCGTT against 1700012B15Rik | inactive: 0.453
GCUUCCUGAUGGACGGACUTT against 1700029I08Rik | inactive: -1.36
GGAUCUUCCUCAUCACCCUTT against Ube4a | inactive: 0.463
GGAAAAGGAAGAUUCUUGATT against Znrd1 | inactive: -0.871
GCUGACAGUAGGAAACUAATT against Dmp1 | inactive: 0.219
GGAUGCAAUGACCCAAUUUTT against Ecm1 | inactive: 0.369
GGGUUACCGUAAGCUGUUGTT against Uts2r | inactive: 1.03
GGCUUGACAUCUAGGGACATT against Dbp | inactive: -1.08
GGGAAUGUUCAUACAAUAGTT against 2810481F14Rik | inactive: -0.08
CCUAUAGCCGCCUUAUGGATT against Arhgef15 | inactive: 0.0737
GGAGACAGCAAAAGGGCUGTT against D930010J01Rik | inactive: -0.12
GGCACACAAUUUUCACUGATT against Pcdhb9 | inactive: 1.19

5 consecutive records from above:
Sequence | z-score
GGAUCUUCCUCAUCACCCUTT against Ube4a | inactive: 0.463
GGAAAAGGAAGAUUCUUGATT against Znrd1 | inactive: -0.871
GCUGACAGUAGGAAACUAATT against Dmp1 | inactive: 0.219
GGAUGCAAUGACCCAAUUUTT against Ecm1 | inactive: 0.369
GGGUUACCGUAAGCUGUUGTT against Uts2r | inactive: 1.03
